According to patent publication US12329160B2, “Activated ferrate compositions” (THE TEXAS A & M UNIVERSITY SYSTEM, priority 2018, dated 2025):

Experiment: Oxidation of individual organic contaminants by Fe^VI with or without S2O3^2− in buffered ultrapure water, HPLC
Format: physicochemical
Conditions: Fe^VI 100.0 μM, S2O3^2− 12.5 μM, pH 8.00, 30 s
Description: To test liquid ferrate solutions using second approach, batch experiments were conducted in a series of 100 mL glass jars under constant stirring rate (400 rpm) with a magnetic stirrer. Oxidation of each micropollutant or their mixtures by Fe^VI with or without S2O3^2− was initiated by mixing equal solution volumes of 10 mL, and the final reaction solutions were kept at 8.00±0.04.
The stock solutions of these contaminants (10.0 μM) were prepared in 10.0 mM Na2HPO4, and diluted using the same buffer solution before the removal experiments. […] Solutions of Fe^VI were prepared by adding K2FeO4 powders to 5.0 mM Na2HPO4/1.0 mM Na2B4O7.10H2O buffer solution. The concentrations of Fe^VI were quantitatively measured using an UV-visible spectrometer at a wavelength of 510 nm with a molar absorption coefficient of ε510 nm=1150 M^−1 cm^−1: The pH value of the contaminant solutions was adjusted to 7.50 via the addition of diluted H3PO4 before mixing with Fe^VI solution to achieve the desired reaction pH at 8.00±0.04. Methanol and phosphoric acid (85%) of high performance liquid chromatography (HPLC) grade were used in testing. […]
Experiments were conducted in a series of 100 mL glass jars under constant stirring rate (400 rpm) with a magnetic stirrer. […] Samples were transferred into high performance liquid chromatography (HPLC) vials, and were subsequently analyzed using the HPLC method. […]

| Compound | oxidation by Fe^VI—S2O3^2− with versus without oxygen (FIG. 7) (air or nitrogen, contaminant 1.0 μM) | removal by Fe^VI—S2O3^2− (FIG. 3) (individual contaminant 1.0 μM) |
| --- | --- | --- |
| Cn1c(=O)c2c(ncn2C)n(C)c1=O [CAF, Caffeine] | no obvious difference |  |
| CC(C)NCC(O)COc1cccc2ccccc12 (centres unmarked) [PPN, Propranolol] |  | Almost complete removal |
